The results in this text go back to patent US20250002503A1, “OXADIAZASPIRO COMPOUNDS FOR USE IN THE TREATMENT OF MOTONEURON DEGENERATION OR IN NEUROPROTECTION” (ESTEVE PHARMACEUTICALS, S.A., priority 2021, published 2025).

The test deals with motoneurons (MNs) in spinal cord organotypic cultures. Nature of the test: Spinal cord organotypic cultures (SCOCs) under THA chronic excitotoxicity, SMI-32 positive MN count. In kind it is cell-based, Sprague-Dawley rats. The note with it: THA 100 μM, 28 DIV; 5 μM. How it is done: SCOCs from lumbar sections of 8 day-old Sprague-Dawley rats were prepared as previously described (Mòdol-Caballero et al., 2017). Briefly, the spinal cord was collected and cut in 350 μm thick transverse sections with a Mcllwain Tissue Chopper. Four lumbar sections per sample were transferred onto Millicell-CM nets (0.4 μm, PICM03050, Millipore) in medium [50% (v/v) minimal essential medium (MEM, M5775, Sigma), 2 mM glutamine, 25 mM HEPES, 25% (v/v) Hank's Balanced Salt Solution (HBSS^−/−, 14175, Gibco) supplemented with 25.6 mg/ml glucose and 25% (v/v) heat-inactivated horse serum (26050-088, Gibco), pH=7.2]. Cultures were maintained at 37° C. in a 5% CO2 humidified cabin and let to stabilize. After 7 days in vitro (DIV), DL-threo-b-hydroxyaspartic acid (THA; 100 μM) was added to induce chronic excitotoxicity (Rothstein et al., 1993). The neuroprotective effect of each Sig-1R ligand was assessed by its coaddition to the culture with THA and renewing at each medium change. Compound A (in DMSO 100 mM) and Compound B (in PBS 1 mM) were tested at four concentrations (30, 3, 0.3 and 0.03 μM). […]
Slices were maintained for 28 DIV and then fixed with 4% paraformaldehyde. […] MN survival was assessed by counting all SMI-32 positive neurons in each spinal cord using the Cell Counter plugin of ImageJ software.

On to `Nc1nc2ccc(OC(F)(F)F)cc2s1` [Riluzole, reference compound], for which the “preservation of MNs (SMI-32 positive), positive control” value is reported as “preserved MNs at levels of control cultures”.
